Source: publication PMC11195615
No constants are given. Whether binding was seen depends on the method and setting. In cells and extracts the contact can be indirect. Some binding calls cover weakened binding; strength is not graded here.

By UniProt entry, the sequences of proteins in these tests, tags left out.
UniProt P01106: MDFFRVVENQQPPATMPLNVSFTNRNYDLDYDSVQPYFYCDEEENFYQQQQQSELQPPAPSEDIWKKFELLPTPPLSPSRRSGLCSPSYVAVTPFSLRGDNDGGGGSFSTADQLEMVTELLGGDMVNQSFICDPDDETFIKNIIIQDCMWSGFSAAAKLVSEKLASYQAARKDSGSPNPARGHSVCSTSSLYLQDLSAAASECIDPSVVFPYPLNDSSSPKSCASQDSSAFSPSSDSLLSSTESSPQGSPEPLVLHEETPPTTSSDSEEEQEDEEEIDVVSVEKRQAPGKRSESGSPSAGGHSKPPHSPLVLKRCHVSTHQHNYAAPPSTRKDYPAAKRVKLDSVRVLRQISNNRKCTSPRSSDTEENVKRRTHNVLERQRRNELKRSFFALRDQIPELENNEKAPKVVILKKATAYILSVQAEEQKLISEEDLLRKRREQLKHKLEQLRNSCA

Biological target: c-MYC protein (human) (UniProt P01106)
Assay: co-IP; c-MYC immunoprecipitated from IOMM-Lee and CH157 meningioma cells; USP44 detected in the precipitate

B1: ubiquitin-specific peptidase 44 (USP44) (enzyme, UniProt Q9H0E7 1-712)
chain: MLAMDTCKHVGQLQLAQDHSSLNPQKWHCVDCNTTESIWACLSCSHVACGRYIEEHALKHFQESSHPVALEVNEMYVFCYLCDDYVLNDNTTGDLKLLRRTLSAIKSQNYHCTTRSGRFLRSMGTGDDSYFLHDGAQSLLQSEDQLYTALWHRRRILMGKIFRTWFEQSPIGRKKQEEPFQEKIVVKREVKKRRQELEYQVKAELESMPPRKSLRLQGLAQSTIIEIVSVQVPAQTPASPAKDKVLSTSENEISQKVSDSSVKRRPIVTPGVTGLRNLGNTCYMNSVLQVLSHLLIFRQCFLKLDLNQWLAMTASEKTRSCKHPPVTDTVVYQMNECQEKDTGFVCSRQSSLSSGLSGGASKGRKMELIQPKEPTSQYISLCHELHTLFQVMWSGKWALVSPFAMLHSVWRLIPAFRGYAQQDAQEFLCELLDKIQRELETTGTSLPALIPTSQRKLIKQVLNVVNNIFHGQLLSQVTCLACDNKSNTIEPFWDLSLEFPERYQCSGKDIASQPCLVTEMLAKFTETEALEGKIYVCDQCNSKRRRFSSKPVVLTEAQKQLMICHLPQVLRLHLKRFRWSGRNNREKIGVHVGFEEILNMEPYCCRETLKSLRPECFIYDLSAVVMHHGKGFGSGHYTAYCYNSEGGFWVHCNDSKLSMCTMDEVCKAQAYILFYTQRVTENGHSKLLPPELLLGSQHPNEDADTSSNEILS
B1 was tested, and the binding was “binds”.
